# “And” between values parts separate entries of the source, which are not always exact repeats. Equal values may be shown once. The campaign covered roughly 580,000 compounds. About 6,100 (1.1%) were called active. Inconclusive results, whose numbers are uncertain, are shown with a selection of clear calls. Calls follow the shape of the dose curve; as a rule, active = well fitted inhibition curve with a large enough effect; inconclusive = small, poorly fitted or top-dose-only effect, or another doubt; inactive = no such curve, though single readings can be large or run the other way. Where the call is inconclusive, the potency comes from a doubtful curve fit.
# By UniProt entry, the sequences of proteins in these tests, tags left out.
# UniProt P18054, whole entry, looked up: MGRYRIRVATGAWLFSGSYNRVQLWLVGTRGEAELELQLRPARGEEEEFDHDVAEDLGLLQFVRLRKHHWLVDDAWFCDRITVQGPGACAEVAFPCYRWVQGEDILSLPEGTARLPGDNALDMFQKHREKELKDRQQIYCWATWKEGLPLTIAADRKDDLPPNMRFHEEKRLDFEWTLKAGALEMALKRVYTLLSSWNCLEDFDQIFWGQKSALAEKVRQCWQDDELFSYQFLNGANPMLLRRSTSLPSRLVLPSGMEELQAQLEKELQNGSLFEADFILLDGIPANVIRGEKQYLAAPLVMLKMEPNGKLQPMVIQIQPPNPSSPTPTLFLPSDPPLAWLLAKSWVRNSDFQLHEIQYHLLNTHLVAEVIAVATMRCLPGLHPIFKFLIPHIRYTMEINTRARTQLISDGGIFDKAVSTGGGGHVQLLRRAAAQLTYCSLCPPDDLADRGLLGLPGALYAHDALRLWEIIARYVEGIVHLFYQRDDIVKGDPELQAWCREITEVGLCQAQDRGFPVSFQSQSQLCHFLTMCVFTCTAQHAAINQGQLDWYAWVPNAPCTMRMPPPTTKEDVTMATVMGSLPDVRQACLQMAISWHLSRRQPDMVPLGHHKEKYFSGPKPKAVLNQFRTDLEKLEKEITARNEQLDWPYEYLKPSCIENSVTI
# Target: Polyunsaturated fatty acid lipoxygenase ALOX12 (Homo sapiens) (UniProt P18054)
# Experiment: Primary qHTS assay for inhibitors of human arachidonate 12S-lipoxygenase (ALOX12): Round 2
# Settings: purified 12hLO, xylenol orange hydroperoxide absorbance; activity change, negative = inhibition: at 108 µM (top of the series) unless noted
# Outline: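 Hydroperoxide product was detected by ferrous iron/xylenol orange as the 573 to 405 nm absorbance ratio. Arachidonic acid at 40 uM (final) was turned over for 30 min at room temperature by 150 nM human 12hLO, pH 7.0 Hepes buffer, after 15 min compound preincubation.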
# % is scaled to controls: 0 for no effect and ±100 for the full control effect; potency is read from the fitted curve at half-maximal effect.
SMILES,Potency,"activity change, negative = inhibition"
O=C(NCCc1ccccc1)C(=O)NCC1CCCN1S(=O)(=O)c1ccccc1 (stereo not given),"inconclusive: 15.8 µM [inhibitor, partial curve, poor fit]",–
Cc1[nH]c(=O)[nH]c(=O)c1S(=O)(=O)Nc1ccc(Br)cc1F,"inconclusive: 0.199 µM [inhibitor, full curve, poor fit]",–
COc1ccc(C(=O)NCCNc2nc3c(C)cccc3cc2C#N)cc1,"inconclusive: 31.6 µM [inhibitor, single point]",–
COc1ccc(-c2ccc3[nH]c4c(c3c2)CCN2C(=O)[C@@H]([C@H](C)O)[C@@H](N(C)C(=O)Nc3ccc(F)cc3)C[C@@H]42)cc1,"inconclusive: 89.1 µM [inhibitor, partial curve, poor fit]",–
Cc1cc(C)n2nc(SC(C)C(=O)Nc3ccc(Cl)cc3)nc2n1 (stereo not given),"inconclusive: 39.8 µM [inhibitor, partial curve, poor fit]",–
CC(C)(C)c1ccc(C(=O)Nc2ccc(S(=O)(=O)Nc3cnc4ccccc4n3)cc2)cc1,"inactive and inconclusive: 3.55 µM [inhibitor, full curve, poor fit]",–
CCN(C)Cc1cn(Cc2ccccc2)nc1-c1ccc2c(c1)OCO2,"inconclusive: 0.891 µM [inhibitor, full curve, poor fit]",–
CCOC(=O)c1nn(-c2ccc(C)cc2)c(=O)cc1OCC(=O)Nc1ccc(OC)cc1,"inconclusive: 56.2 µM [inhibitor, partial curve, poor fit]",–
Clc1cccc(-c2ccc3nccn3c2)c1Cl,"inconclusive: 79.4 µM [inhibitor, single point]",–
CSc1cccc(Nc2nc(N)c(C(=O)c3cccc(Br)c3)s2)c1,"inconclusive: 7.08 µM [inhibitor, full curve]",–
Cc1cccc(NC2=NC(C)(C)N=C(N)N2)c1,–,inactive: -6.61%
O=C(Nc1cc(F)ccc1Cl)c1cc2n(n1)CC(c1ccc(Br)cc1)OC2 (stereo not given),"inconclusive: 11.2 µM [inhibitor, full curve]",–
O=C1C=C(c2c(O)ccc3ccccc23)c2ccccc2C1=O,active: 44.7 µM,–
O=C(CSc1nnc(-c2cccs2)o1)Oc1ccccc1Cl,"inconclusive: 89.1 µM [inhibitor, partial curve, poor fit]",–
CC1(C)Oc2ccc3ccc(=O)oc3c2/C(=N/O)C1=O,"inconclusive: 100 µM [inhibitor, single point]",–
CN(CC(=O)Nc1ccncc1)S(=O)(=O)c1ccc(Br)cc1,"inconclusive: 100 µM [inhibitor, single point]",–
COc1ccc2c(c1)CCC/C(C)=C/C(=O)c1ccccc1O2,"inconclusive: 50.1 µM [inhibitor, partial curve, poor fit]",–
CCN1CCN(C(c2cccs2)C(C)NS(=O)(=O)c2ccc(Br)cc2)CC1 (stereo not given),"inconclusive: 44.7 µM [inhibitor, partial curve, poor fit]",–
O=C1NC(=Nc2ccccc2Cl)S/C1=C\c1cccc([N+](=O)[O-])c1O,"inconclusive: 31.6 µM [inhibitor, partial curve, poor fit]",–
O=C(c1cnn(-c2ccccc2)c1-n1cccc1)N1CCN(c2cccc(Cl)c2)CC1,"inconclusive: 50.1 µM [inhibitor, partial curve, poor fit]",–
Cn1cccc1C(=O)N1CCC(N2C(=O)C(O)C23CCCCC3)CC1 (stereo not given),–,inactive: 17.5%
O=C(NC1C[C@H]2CC[C@@H](C1)N2C(=O)Cc1ccccc1Cl)c1ccncc1 (stereo not given in full),–,inactive: 50.5%

SMILES,Potency,"activity change, negative = inhibition"
C=CCNC(=O)[C@@H]1CCCN1[C@@H](C(=O)NC)c1ccccc1F,"inconclusive: 12.6 µM [inhibitor, full curve, poor fit]",–
O=C1[C@H]2[C@@H](c3ccccc3)N[C@]3(CCCN(Cc4ccccc4)C3=O)[C@H]2C(=O)N1Cc1ccccc1,"inconclusive: 89.1 µM [inhibitor, single point]",–
O=C(NC1CCCCCC1)c1cnn2c(C(F)(F)F)cc(-c3ccco3)nc12,"inconclusive: 44.7 µM [inhibitor, partial curve, poor fit]",–
O=C(CC1CCOC2(CCN(S(=O)(=O)Cc3ccccc3)CC2)C1)N1CCOCC1 (stereo not given),–,inactive: 0.0177%
Cc1cc(C(=O)N/N=C/c2ccc(Cl)c([N+](=O)[O-])c2)c(C)n1-c1ccc(F)cc1,–,inactive: 10.1%
COC(=O)C1=C(C)N(Cc2ccc(C(F)(F)F)cc2)C(=NCc2ccccc2)NC1c1ccc(Cl)cc1 (stereo not given),"inconclusive: 44.7 µM [inhibitor, partial curve, poor fit]",–
O=C(Cc1cccs1)N(Cc1cccnc1)C1CC1,–,inactive: 9.61%
CCOc1cc(CNc2ccc3cn[nH]c3c2)ccc1OC,–,inactive: 0.501%
Cc1cc(C)n2nc(SCC(=O)N(Cc3ccccc3)C3CCS(=O)(=O)C3)nc2n1 (stereo not given),–,inactive: -0.661%
Cc1cc(O)c2c(C)c(CC(=O)NCCc3cccc(F)c3)c(=O)oc2c1,active: 28.2 µM,–
O=C(c1nc(-c2ccc(F)cc2)c2cnccn12)N1CCN(c2ncccn2)CC1,"inconclusive: 15.8 µM [inhibitor, full curve]",–
O=C1S/C(=C\C=C\c2ccco2)C(=O)N1c1ccccc1,active: 28.2 µM,–
O=C(Cn1ncc2c3ccccc3n(Cc3cccc(Cl)c3)c2c1=O)Nc1ccc(F)cc1F,"inconclusive: 35.5 µM [inhibitor, partial curve, poor fit]",–
N#C/C(=C\c1cccs1)C(=O)Nc1ccccn1,–,inactive: -22%
COc1ccc(C2C(=O)N(CCc3ccccc3)CC(=O)N2C2CCCC2)cc1 (stereo not given),–,inactive: 17.6%
COc1cc(C2c3cc4c(cc3OC(NCCc3ccccc3)C2C)OCO4)cc(OC)c1OC (stereo not given),"inconclusive: 5.01 µM [inhibitor, full curve, poor fit]",–
COc1cccc(Nc2cc3c(cn2)cc(-c2cccc(C(F)(F)F)c2)n3C)c1,"inconclusive: 89.1 µM [inhibitor, single point]",–
CN1CCN(S(=O)(=O)c2cccc(C(=O)Nc3sccc3C(N)=O)c2)CC1,"inconclusive: 112 µM [inhibitor, single point]",–
CCc1ccc(-n2c(=O)c3ccccc3n(CC(=O)NCc3ccco3)c2=O)cc1,–,inactive: 2.86%
NC(=S)NN=Cc1nccc2ccccc12,"inconclusive: 89.1 µM [inhibitor, single point]",–
Cn1ccsc1=NC(=O)c1ccc(S(C)(=O)=O)cc1,"inconclusive: 5.01 µM [inhibitor, full curve, poor fit]",–
CCOC(=O)C[C@H]1c2ccccc2S(=O)(=O)N1c1ccccc1,"inconclusive: 100 µM [inhibitor, single point]",–

# Quoted from the listing for reference:
SMILES,Potency,"activity change, negative = inhibition"
O=C(Nc1cc(F)ccc1Cl)c1cc2n(n1)CC(c1ccc(Br)cc1)OC2 (stereo not given),"inconclusive: 11.2 µM [inhibitor, full curve]",–
O=C1C=C(c2c(O)ccc3ccccc23)c2ccccc2C1=O,active: 44.7 µM,–

# Remaining list, next part:

SMILES,Potency,"activity change, negative = inhibition"
COc1ccc(NC(=O)COc2ccccc2C)c2cccnc12,–,inactive: 9.54%
COc1ccc(NC(=O)Cn2cc(S(=O)(=O)c3ccccc3)c(=O)c3cc4c(cc32)OCO4)cc1,"inconclusive: 50.1 µM [inhibitor, partial curve, poor fit]",–
Cc1ccc(OCCOC(=O)C2COc3ccccc3O2)cc1 (stereo not given),–,inactive: 15%
Cn1ccc2c(-c3cccc4ccccc34)cc3c(c21)C1CCC3C1 (stereo not given),–,inactive: 0.085%
CCN1CCc2c(sc(-n3cccc3)c2C(C)NC(=O)Nc2ccc(Br)cc2)C1 (stereo not given),"inconclusive: 2.51 µM [inhibitor, full curve, poor fit]",–
O=C(O)C1CCCN1c1nc(Cl)ccc1[N+](=O)[O-] (stereo not given),"inconclusive: 44.7 µM [inhibitor, partial curve]",–
O=C(c1ccc(OC2CCN(Cc3ccc(F)cc3)CC2)cc1)N1CCCC1,–,inactive: 10.4%
COc1cccc(CNc2ncc(-c3ccccc3)n2C)c1,"inconclusive: 0.631 µM [inhibitor, full curve, poor fit]",–
NC(=O)c1ccsc1NC(=O)CSc1ccc2c(c1)CCC2,"inconclusive: 31.6 µM [inhibitor, partial curve, poor fit]",–
Cc1ccc(Cl)cc1NC(=S)N(CCCN1CCN(C)CC1)Cc1ccco1,–,inactive: 2.18%
COc1ccc(-c2nc(N3CCOC[C@H]3C)cc3c2CN(C(C)C)C3=O)cc1,"inconclusive: 70.8 µM [inhibitor, partial curve]",–
Cc1cccc(N2CCN(C(=O)C3CCN(S(=O)(=O)c4c(C)noc4C)CC3)CC2C)c1 (stereo not given),"inconclusive: 141 µM [inhibitor, single point]",–
Cc1cccc(-c2n[nH]c(=S)n2/N=C/c2cccs2)c1,"inconclusive: 4.47 µM [inhibitor, full curve, poor fit]",–
OC[C@H]1O[C@@H](OC[C@H]2O[C@@H](O)[C@H](O)[C@@H](O)[C@@H]2O)[C@H](O)[C@@H](O)[C@@H]1O,–,inactive: 1.53%
CCCC(=O)N1CCC1(C)C(=O)NS(=O)(=O)c1cccc(Cl)c1 (stereo not given),"inconclusive: 39.8 µM [inhibitor, partial curve]",–
Cc1ccc(NC(=O)c2cc3ccccc3o2)nc1,–,inactive: 7.06%
COc1ccccc1NC(=O)Nc1nc(C(N)Cc2ccc(C(F)(F)F)cc2)cs1 (stereo not given),"inconclusive: 44.7 µM [inhibitor, partial curve, poor fit]",–
CCN1/C(=C\C=C(C(C)=O)C(C)=O)Sc2ccccc21,–,inactive: -48.8%
CCOC(=O)CNC(=O)c1cc2n(n1)CC(c1ccc(Br)cc1)OC2 (stereo not given),"inconclusive: 35.5 µM [inhibitor, full curve, poor fit]",–
Cc1ccc(C(C(=O)NC2CCCCC2)N(Cc2ccco2)C(=O)Cc2c[nH]c3ccccc23)o1 (stereo not given),"inconclusive: 100 µM [inhibitor, partial curve, poor fit]",–
O=C1C=C(Nc2cccc3cccnc23)c2ccccc2C1=O,"inconclusive: 39.8 µM [inhibitor, partial curve, poor fit]",–

# — PubChem BioAssay AID1671190 (National Center for Advancing Translational Sciences (NCATS), 2021)
